Test results taken from PubChem BioAssay AID1671190 (National Center for Advancing Translational Sciences (NCATS), 2021).
Hit rate of the full screen: of about 580,000 compounds, about 6,100 (1.1%) were called active. The inconclusive results got no clear call from the source; some entries with a clear call stand among them for comparison. Calls come from the whole dose curve; as a rule, active = well fitted inhibition curve with a large enough effect; inconclusive = small, poorly fitted or top-dose-only effect, or another doubt; inactive = no such curve, though single readings can be large or run the other way. A potency beside an inconclusive call is a rough fit, not a confirmed value.

Sequences of proteins named here, by UniProt entry; tags and fusion partners are left off. A change or cut given only in a name is not applied to a line headed by its entry.
UniProt P18054: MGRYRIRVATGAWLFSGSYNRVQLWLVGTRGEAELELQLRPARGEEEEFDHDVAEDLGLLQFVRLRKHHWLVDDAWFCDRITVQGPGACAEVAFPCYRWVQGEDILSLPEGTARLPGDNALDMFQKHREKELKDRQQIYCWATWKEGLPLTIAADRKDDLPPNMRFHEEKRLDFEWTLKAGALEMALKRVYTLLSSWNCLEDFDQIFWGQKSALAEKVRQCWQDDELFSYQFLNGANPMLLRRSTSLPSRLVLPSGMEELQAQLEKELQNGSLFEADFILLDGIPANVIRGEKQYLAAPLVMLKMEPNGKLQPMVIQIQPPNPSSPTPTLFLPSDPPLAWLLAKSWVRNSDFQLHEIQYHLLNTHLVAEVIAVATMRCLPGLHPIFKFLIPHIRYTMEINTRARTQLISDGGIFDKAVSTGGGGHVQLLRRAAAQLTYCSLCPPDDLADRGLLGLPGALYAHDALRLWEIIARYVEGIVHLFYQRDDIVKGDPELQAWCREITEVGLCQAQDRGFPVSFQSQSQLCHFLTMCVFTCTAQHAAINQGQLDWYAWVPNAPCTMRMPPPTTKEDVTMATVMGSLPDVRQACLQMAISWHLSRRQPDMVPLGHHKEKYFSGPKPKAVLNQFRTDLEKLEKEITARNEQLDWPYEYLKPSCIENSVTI

target: Polyunsaturated fatty acid lipoxygenase ALOX12 (Homo sapiens) (UniProt P18054); test: Primary qHTS assay for inhibitors of human arachidonate 12S-lipoxygenase (ALOX12): Round 2; settings: purified 12hLO, xylenol orange hydroperoxide absorbance; activity change, negative = inhibition: at 108 µM (top of the series) unless noted
Outline: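 Purified human 12hLO (150 nM final) in 25 mM Hepes, 0.01% Triton X-100, pH 7.0 was preincubated 15 min at room temperature with compound. Then 40 uM arachidonic acid was added, 30 min. Hydroperoxide was read by Fe-XO absorbance ratio 573/405 nm.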
% is set by controls: 0 for no effect and ±100 for the full control effect; potency is the fitted concentration of half-maximal effect.

Compound | Potency | activity change, negative = inhibition
CCOC(=O)c1nnn(-c2nonc2N)c1COc1cc(C)c(Cl)c(C)c1 | inconclusive: 100 µM [inhibitor, partial curve, poor fit] | –
Cc1nc(-c2c3n(c(=O)n(CC(=O)Nc4ccccc4C)c2=O)CCCCC3)no1 | inconclusive: 31.6 µM [inhibitor, partial curve] | –
C[n+]1ccccc1/C=C/c1c(F)cccc1F | inconclusive: 7.08 µM [inhibitor, full curve] | –
CCCn1cnnc1CNC(=O)[C@@H](Cc1ccccc1)NC(=O)[C@H]1O[C@@H](n2ccc(=O)[nH]c2=O)[C@H](O)[C@@H]1O | – | inactive: -1.59%
CCc1nc(-c2c3n(c(=O)n(Cc4ccc(OC)cc4)c2=O)CCCCC3)no1 | – | inactive: 7.57%
CCC(=O)Nc1ccc(Cl)c(NC(=S)NC(=O)c2cc3ccccc3o2)c1 | – | inactive: -4.66%
Cc1ccc2c(C)c(CCC(=O)N(C)c3ccccc3)c(=O)oc2c1 | inconclusive: 89.1 µM [inhibitor, single point] | –
CCN(CC)C(=O)C1CCN(Cc2cccc(OCc3ccccc3)c2)CC1 | inconclusive: 0.398 µM [inhibitor, full curve, poor fit] | –
COc1cccc(CN2C(=O)OC3(CCN(Cc4cccc(C)c4)CC3)C2(C)c2cccnc2)c1 (stereo not given) | inconclusive: 56.2 µM [inhibitor, partial curve, poor fit] | –
Cn1c(=O)cc(C(=O)NC2CCCc3c2[nH]c2c(Cl)cccc32)c2ccccc21 (stereo not given) | – | inactive: 10.8%
CC(C)(C)OC(=O)N1CCC(C(=O)Nc2ccc(C(=O)N3CCCCC3)cc2)CC1 | inconclusive: 35.5 µM [inhibitor, single point] | –
CCCCC1Cc2[nH]c(=S)[nH]c(=O)c2C(c2ccc(C(C)C)cc2)O1 (stereo not given) | active: 39.8 µM | –
COc1ccc(C#Cc2c(-c3ccsc3)oc3ccc(N4CCOCC4)cc23)cc1 | – | inactive: -12.7%
CCN(CC)C(=O)c1cccc(NC(=O)c2cnc3ccccc3n2)c1 | inconclusive: 1.12 µM [inhibitor, full curve] | –
Cc1ccc(C(=O)OCC(=O)c2cc(C)n(Cc3ccco3)c2C)s1 | – | inactive: -46%
Cn1c2ccc(F)cc2c2nnc(SCCN3CCOCC3)nc21 | inconclusive: 39.8 µM [inhibitor, partial curve, poor fit] | –
O=C(Nc1cccc2ncccc12)c1ccc(-c2ccc(Cl)cc2Cl)o1 | inconclusive: 7.08 µM [inhibitor, full curve, poor fit] | –
Cc1cn2c(=O)cc(COC(=O)c3cccc(NC(=O)COc4ccccc4)c3)nc2s1 | inconclusive: 100 µM [inhibitor, partial curve, poor fit] | –
Cc1ccc(C(C)C)cc1OCCn1cncn1 | inconclusive: 0.398 µM [inhibitor, full curve] | –
O=C(CSc1nnnn1C1CC1)N1CCN(c2ccccc2F)CC1 | inconclusive: 112 µM [inhibitor, single point] | –
NC(=O)C1(N2CCCCC2)CCN(C(=O)c2ccc(-n3cnnn3)cc2)CC1 | – | inactive: -16.8%
Cc1cc2cc(CNC(=O)Nc3ccccc3)ccc2[nH]1 | – | inactive: -16%

Among those listed so far, 3 contain an aryl methoxy group.
Compound | Potency | activity change, negative = inhibition
CCc1nc(-c2c3n(c(=O)n(Cc4ccc(OC)cc4)c2=O)CCCCC3)no1 | – | inactive: 7.57%
COc1cccc(CN2C(=O)OC3(CCN(Cc4cccc(C)c4)CC3)C2(C)c2cccnc2)c1 (stereo not given) | inconclusive: 56.2 µM [inhibitor, partial curve, poor fit] | –
COc1ccc(C#Cc2c(-c3ccsc3)oc3ccc(N4CCOCC4)cc23)cc1 | – | inactive: -12.7%

(listing goes on)

Compound | Potency | activity change, negative = inhibition
CCOC(=O)Nc1ccc2c(c1)C(=NNC(N)=S)c1ccccc1-2 | inconclusive: 31.6 µM [inhibitor, partial curve, poor fit] | –
CCOC(=O)c1cnc(-n2nc(C)cc2C)nc1Nc1ccc(O)cc1 | inconclusive: 44.7 µM [inhibitor, partial curve, poor fit] | –
O=C(CSc1nc(Nc2ccccc2)nc(N2CCOCC2)n1)Nc1cc(Cl)ccc1O | inconclusive: 50.1 µM [inhibitor, partial curve, poor fit] | –
COc1ccccc1CNc1nc(NCc2ccc(C(C)C)cc2)c2sccc2n1 | inconclusive: 44.7 µM [inhibitor, partial curve, poor fit] | –
COc1ccc(OC)c(NC(=O)c2oc3c(c2C)-c2nn(Cc4ccc(Cl)cc4)cc2CC3)c1 | inconclusive: 56.2 µM [inhibitor, partial curve, poor fit] | –
COC(=O)C1=C(C)N(Cc2ccccc2C(F)(F)F)C(=NCc2ccccc2C(F)(F)F)NC1c1cccc(F)c1 (stereo not given) | – | inactive: -6.21%
O=c1[nH]c(=O)c2ncn(C3OC(CO)C(O)C3O)c2[nH]1 (stereo not given) | – | inactive: -0.152%
CN(C)c1ccc(-c2ccnc3c2CC(C)(C(=O)NCC2CC2)O3)cc1 (stereo not given) | inconclusive: 112 µM [inhibitor, single point] | –
COc1cc(NC(=O)Nc2nc(C(N)CCc3ccccc3)cs2)cc(OC)c1OC (stereo not given) | inconclusive: 100 µM [inhibitor, single point] | –
CCOC(=O)N1CCN(C(=O)CSCc2ccccc2C)CC1 | inconclusive: 70.8 µM [inhibitor, partial curve, poor fit] | –
Cc1ccc2c(CC(=O)N3CCN(c4cccc(Cl)c4)CC3)coc2c1C | inconclusive: 89.1 µM [inhibitor, partial curve, poor fit] | –
COC(=O)CN1C(=O)CSc2ccc(S(=O)(=O)Nc3ccccc3)cc21 | – | inactive: -23.7%
Cc1ccc(Cn2c(C3CCN(C(=O)c4ccc(C)c(F)c4)CC3)n[nH]c2=O)cc1 | inconclusive: 44.7 µM [inhibitor, partial curve] | –
O=C1NC(=S)S/C1=C\c1coc2ccc(O)cc2c1=O | inconclusive: 50.1 µM [inhibitor, partial curve, poor fit] | –
S=C(NCc1ccco1)Nc1ccc(Br)cc1 | inconclusive: 56.2 µM [inhibitor, partial curve, poor fit] | –
Cc1cc(S(=O)(=O)n2cnc3ccccc32)c(C)cc1Cl | inconclusive: 31.6 µM [inhibitor, partial curve, poor fit] | –
CC(C)N1C[C@H](O)C[C@H]1c1nnc2n1CCN(C(=O)c1ccncc1)CC2 | – | inactive: -1.2%
COCCn1c(=O)c(-c2ccccc2)nc2cnc(N3CCNCC3)nc21 | inconclusive: 39.8 µM [inhibitor, partial curve, poor fit] | –
NC(=O)CCN1CC(c2cc(Cl)c(N)c(Cl)c2)=CC1=O | inconclusive: 44.7 µM [inhibitor, partial curve, poor fit] | –
CN1CCC([C@@H]2CN(C(=O)NCCc3ccccc3)C[C@H]2C(N)=O)CC1 | – | inactive: 46.1%
C(=N\N=C1c2ccccc2-c2ccccc21)/c1ccccn1 | – | inactive: 11.3%
Cn1c(=O)c([N+](=O)[O-])c(N2CCN(Cc3ccc4c(c3)OCO4)CC2)c2ccccc21 | – | inactive: 0%

Compound | Potency | activity change, negative = inhibition
CNC[C@H](Cc1ccccc1)NC[C@@H](Cc1cccc2ccccc12)NCCc1ccc(C)cc1 | inconclusive: 56.2 µM [inhibitor, partial curve, poor fit] | –
COc1ccc(-n2c3c(cc(C#N)c2=O)C(=O)CCC3)cc1 | – | inactive: 0%
CC(=O)c1cnc(-c2ccccn2)s1 | – | inactive: 0%
C=CCOc1cccc(C2C(C(=O)c3ccco3)=C(O)C(=O)N2CCN2CCOCC2)c1 (stereo not given) | inconclusive: 12.6 µM [inhibitor, partial curve, poor fit] | –
CCS(=O)(=O)N1CCN(Cc2nc3ccccc3c(=O)[nH]2)CC1 | inconclusive: 28.2 µM [inhibitor, single point] | –
COc1cccc(NC(=O)CN(C)C(=O)c2cc(-c3ccco3)nc3ccccc23)c1 | inconclusive: 8.91 µM [inhibitor, full curve, poor fit] | –
O=C(CN1CCN(c2ccc(O)cc2)CC1)Nc1ccccc1C(=O)NCCc1ccccc1 | inconclusive: 4.47 µM [inhibitor, partial curve, poor fit] | –
O=C1C2C3C=CC(C3)C2C(=O)N1CCN1CCN(S(=O)(=O)c2ccc3ccccc3c2)CC1 (stereo not given) | – | inactive: 2.8%
COc1cc(C(=O)N2CCc3c([nH]c4ccccc34)C2c2ccc(F)cc2)cc(OC)c1OC (stereo not given) | – | inactive: 0%
CC(C)=CCC[C@](C)(O[C@@H]1O[C@H](CO[C@@H]2OC[C@@H](O)[C@H](O)[C@H]2O)[C@@H](O)[C@H](O)[C@H]1O)C1CC[C@]2(C)C1[C@H](O)CC1[C@@]3(C)CC[C@H](O[C@@H]4O[C@H](CO)[C@@H](O)[C@H](O)[C@H]4O)C(C)(C)C3CC[C@]12C (stereo not given in full) | inconclusive: 50.1 µM [inhibitor, partial curve, poor fit] | –
CC(NC(=O)c1cc2sccc2n1C)c1ccc2c(c1)OCCO2 (stereo not given) | inconclusive: 39.8 µM [inhibitor, partial curve, poor fit] | –
COc1ccc(CCNCc2c(OC)ccc3ccccc23)cc1OC | inconclusive: 89.1 µM [inhibitor, single point] | –
O=C(c1ccc(F)cc1F)N1CCC(n2cnnc2C2CC2)CC1 | – | inactive: 44.4%
CCCNC(=S)NC(C)C12CC3CC(CC(C3)C1)C2 (stereo not given) | inconclusive: 39.8 µM [inhibitor, partial curve, poor fit] | –
C/C(=N/NC(=O)c1ccccn1)c1ccc(O)cc1 | – | inactive: -0.375%
O=C(CSc1nnc(Cc2ccc3c(c2)OCO3)n1C1CCCCC1)NC1CCCC1 | – | inactive: -1.22%
Cc1sc(NC(=O)c2ccccc2)c(C(=O)c2ccccc2)c1C | inconclusive: 56.2 µM [inhibitor, partial curve, poor fit] | –
Cc1ccnc(NC(=O)c2ccc3c(c2)NC(=O)C(C)S3)c1 (stereo not given) | – | inactive: 97.8%
O=C(Nc1ccc(NC(=O)C2CC2)nc1)c1ccccn1 | inconclusive: 0.794 µM [inhibitor, full curve, poor fit] | –
O=C1NC(=NC2CCCCC2)C2(CCCN(Cc3ccccc3)C2)N1c1cc(F)cc(F)c1 (stereo not given) | inconclusive: 56.2 µM [inhibitor, partial curve, poor fit] | –
COc1cc(C#N)ccc1OCc1c(F)cccc1Cl | – | inactive: -6.7%
